From patent US20140235776A1, “AMINOALCOHOL COMPOUNDS AND THEIR USE AS ZERO OR LOW VOC ADDITIVES FOR PAINTS AND COATINGS” (ANGUS CHEMICAL COMPANY, priority 2011, published 2014)

Assay: Opacity of paint film after 5 freeze-thaw cycles (Sheen Micromatch Plus)
Conditions: additive 2 wt %, 150 micron film dried 7 days

SMILES | Opacity (Sample)
CC(O)CO (stereo not drawn) [Propylene Glycol, propylene glycol, reference compound] | 95.75
OCC(O)CN(CCN(CC(O)CO)CC(O)CO)CCN(CC(O)CO)CC(O)CO (stereo not drawn) [F/T Agent 2, 3,3′,3″,3′′′-((((2,3-dihydroxypropyl)azanediyl)bis(ethane-2,1-diyl))bis(azanetriyl))tetrakis(propane-1,2-diol)] | 95.9
OCC(O)CNCCN(CCNCC(O)CO)CC(O)CO (stereo not drawn) [F/T Agent 1, 3,3′-((((2,3-dihydroxypropyl)azanediyl)bis(ethane-2,1-diyl))bis(azanediyl))bis(propane-1,2-diol)] | 95.96
